Measurements taken from the supplement of paper PMC12009310.
Where a name gives a salt, the structure may show the parent alone. ± gives the standard deviation of the averaged measurements. This is one part of the list. Plates or batches differ in their baseline, so values are only roughly comparable.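 The cells are a mouse kidney inner medullary collecting duct line, silenced either for the ciliary gene Rpgrip1l or with a non-targeting control siRNA.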

These molecules were tested on mIMCD3 (assay: robust z score of cilia incidence (% cells with single cilium) vs plate controls; higher = more ciliated cells (rescue of cilia loss)). Details: 10 µM; 48 h; siRNA: siRpgrip1l.
With CC(=O)NCCc1c[nH]c2ccccc12 [N-Acetyltryptamine] the “robust z score of cilia incidence” value was -7.25 ± 6.3. In the case of C[C@@H]1O[C@@H](O[C@H]2C[C@@H](O)[C@]3(CO)[C@H]4[C@H](O)C[C@]5(C)[C@@H](C6=CC(=O)OC6)CC[C@]5(O)[C@@H]4CC[C@]3(O)C2)[C@H](O)[C@H](O)[C@H]1O [Ouabain], the “robust z score of cilia incidence” value is reported as -11.8 ± 2.3. With c1ccc2c(c1)OCC(C1=NCCN1)O2 (configuration not stated) [Idazoxan hydrochloride] the “robust z score of cilia incidence” value was -12.3 ± 1.7. In the case of O=C(O)/C=C/CO [trans-4-Hydroxycrotonic acid], the “robust z score of cilia incidence” value is reported as -10.1 ± 0.44. CN[C@@H]1C[C@@H](c2ccc(Cl)c(Cl)c2)c2ccccc21 [Indatraline hydrochloride] was tested, and the “robust z score of cilia incidence” value was -523 ± 300. For N[C@@]1(C(=O)O)CC[C@@H](C(=O)O)C1, the “robust z score of cilia incidence” value was -6.96 ± 6.9. COc1ccc(C(=O)N2CCCC2=O)cc1 [Aniracetam] was tested, and the “robust z score of cilia incidence” value was -6.78 ± 3.2. With O=C(CCCN1CCC2(CC1)C(=O)N(Cc1cccc(F)c1)CN2c1ccccc1)c1ccc(F)cc1 [3'-Fluorobenzylspiperone maleate] the “robust z score of cilia incidence” value was -41.5 ± 1.2. With CCCCCCC[n+]1ccc(-c2cc[n+](CCCCCCC)cc2)cc1 [DHBP dibromide] the “robust z score of cilia incidence” value was -23.9 ± 3.2. For CC(C)C[C@@H](N)C1(c2ccc(Cl)cc2)CCC1, the “robust z score of cilia incidence” value was -12.7 ± 9.3. In the case of Cc1onc(O)c1CC(N)C(=O)O (racemic), the “robust z score of cilia incidence” value is reported as -5.58 ± 0.9. CCN1C[C@]2(COC(=O)c3ccccc3N3C(=O)C[C@H](C)C3=O)CC[C@H](OC)[C@@]34[C@@H]5C[C@H]6[C@H](OC)[C@@H]5[C@](O)(C[C@@H]6OC)[C@](O)([C@@H](OC)[C@H]23)[C@@H]14 [Methyllycaconitine citrate] was tested, and the “robust z score of cilia incidence” value was -16.2 ± 0.88. NCc1cc(O)no1 [Muscimol] was tested, and the “robust z score of cilia incidence” value was -7.23 ± 2.7. Cc1nnc2ccc(-c3cccc(C(F)(F)F)c3)nn12 was tested, and the “robust z score of cilia incidence” value was -14.7 ± 2.3. With CCCN(CCC)C1CCc2cccc(O)c2C1 (configuration not stated) [8-Hydroxy-DPAT hydrobromide] the “robust z score of cilia incidence” value was -10.9 ± 1.4. With Cc1[nH]c2ccc(Cl)cc2c1C1=CCNCC1 the “robust z score of cilia incidence” value was -17.2 ± 14. In the case of O=c1[nH]c2ccccc2n1C1CCN(CCCC(c2ccc(F)cc2)c2ccc(F)cc2)CC1 [Pimozide], the “robust z score of cilia incidence” value is reported as -28.3 ± 4.5. With C[C@@H]1CC[C@H]2[C@@H](C)C(=O)O[C@@H]3O[C@@]4(C)CC[C@@H]1[C@]32OO4 [Artemisinin] the “robust z score of cilia incidence” value was -18.5 ± 1.6. c1ccc2c(c1)[I+]c1ccccc1-2 [Diphenyleneiodonium chloride] was tested, and the “robust z score of cilia incidence” value was -52.6 ± 8.4. In the case of CC(C)NCC(O)c1ccc(N)c(C#N)c1 (configuration not stated) [Cimaterol], the “robust z score of cilia incidence” value is reported as -4.61 ± 0.71. With S=C=Nc1cccc(C2(N3CCCCC3)CCCCC2)c1 [Metaphit] the “robust z score of cilia incidence” value was -7.79 ± 6.2. With COc1ccc(CNC(=O)/C=C/c2ccc3[nH]cc(CCN(C)C)c3c2)cc1 the “robust z score of cilia incidence” value was -11.1 ± 3.6. For Cc1cc(C)cc(C(=O)OC2C[C@H]3CC[C@@H](C2)N3C)c1 (some centres not stated) [Tropanyl-3,5-dimethylbenzoate], the “robust z score of cilia incidence” value was -54.9 ± 6. In the case of COc1ccc2[nH]cc(C3=CCNCC3)c2c1, the “robust z score of cilia incidence” value is reported as -9.59 ± 2.4. In the case of N[C@H](C(=O)O)c1cc(O)no1 [Ibotenic acid], the “robust z score of cilia incidence” value is reported as -7.89 ± 3.2. With c1ccc(C2CC2)c(OCC2=NCCN2)c1 [Cirazoline hydrochloride] the “robust z score of cilia incidence” value was -7.15 ± 2.2. COc1ccc(-n2nc(C(F)(F)F)cc2-c2ccc(Cl)cc2)cc1 was tested, and the “robust z score of cilia incidence” value was -153 ± 110. CC(CN)CC(=O)O (configuration not stated) [3-Methyl-GABA] was tested, and the “robust z score of cilia incidence” value was -5.19 ± 2. CN1[C@@H]2CC[C@H]1C[C@@H](OC(=O)c1cc(Cl)cc(Cl)c1)C2 was tested, and the “robust z score of cilia incidence” value was -55.5 ± 6.1. With O=Cc1cn(Cc2ccc(Cl)cc2)c2ccccc12 [Oncrasin 1] the “robust z score of cilia incidence” value was -10.7 ± 8. For C[C@H](N)Cc1cnc[nH]1 [(S)-(+)-a-Methylhistamine dihydrobromide], the “robust z score of cilia incidence” value was -12.5 ± 6.2. In the case of CN1C[C@H](C(=O)N[C@]2(C)O[C@@]3(O)[C@@H]4CCCN4C(=O)[C@H](Cc4ccccc4)N3C2=O)C[C@@H]2c3cccc4[nH]cc(c34)C[C@H]21 [Dihydroergotamine mesylate], the “robust z score of cilia incidence” value is reported as -9.78 ± 6.2. In the case of O=C(CCCN1CCC2(CC1)C(=O)NCN2c1ccccc1)c1ccc(F)cc1 [Spiperone hydrochloride], the “robust z score of cilia incidence” value is reported as -23.5 ± 4.3. With C[C@@]12N[C@@H](Cc3ccccc31)c1ccccc12 [(-)-MK 801 maleate] the “robust z score of cilia incidence” value was -8.89 ± 3.2. With CC(C)(C)NCC(O)COc1cccc2[nH]c(C#N)cc12 (configuration not stated) [Cyanopindolol hemifumarate] the “robust z score of cilia incidence” value was -11.2 ± 5. For C[N+]1(C)CCc2cc3c(cc2[C@H]1[C@@H]1OC(=O)c2c1ccc1c2OCO1)OCO3 [(-)-Bicuculline methochloride], the “robust z score of cilia incidence” value was -10.9 ± 4.4. In the case of N=C(NCc1ccc(Cl)cc1)SCCCc1c[nH]cn1 [Clobenpropit dihydrobromide], the “robust z score of cilia incidence” value is reported as -16.919 ± 0.0088.
